{"source": "ChEMBL document CHEMBL4316593", "about": "(Eur J Med Chem, 2019)", "type_in_all_cases": "cell-based", "settings_in_all_cases": "U-87MG ATCC", "key": {"[1]": {"assay": "Inhibition of RTK/PI3K/AKT/mTOR signaling in human U87 cells assessed as down regulation of EIF4A2 gene expression at cytotoxic IC50 measured after 48 hrs relative to control"}, "[2]": {"assay": "Inhibition of RTK/PI3K/AKT/mTOR signaling in human U87 cells assessed as down regulation of CYP1B1 gene expression at cytotoxic IC50 measured after 48 hrs relative to control"}, "[3]": {"assay": "Inhibition of RTK/PI3K/AKT/mTOR signaling in human U87 cells assessed as down regulation of TMEM117 gene expression at cytotoxic IC50 measured after 48 hrs relative to control"}, "[4]": {"assay": "Inhibition of RTK/PI3K/AKT/mTOR signaling in human U87 cells assessed as down regulation of BICDL1 gene expression at cytotoxic IC50 measured after 48 hrs relative to control"}, "[5]": {"assay": "Inhibition of RTK/PI3K/AKT/mTOR signaling in human U87 cells assessed as down regulation of GALNT1 gene expression at cytotoxic IC50 measured after 48 hrs relative to control"}, "[6]": {"assay": "Inhibition of RTK/PI3K/AKT/mTOR signaling in human U87 cells assessed as down regulation of ZNF317 gene expression at cytotoxic IC50 measured after 48 hrs relative to control"}, "[7]": {"assay": "Inhibition of RTK/PI3K/AKT/mTOR signaling in human U87 cells assessed as down regulation of EIF5 gene expression at cytotoxic IC50 measured after 48 hrs relative to control"}, "[8]": {"assay": "Inhibition of RTK/PI3K/AKT/mTOR signaling in human U87 cells assessed as down regulation of FBXO33 gene expression at cytotoxic IC50 measured after 48 hrs relative to control"}, "[9]": {"assay": "Inhibition of RTK/PI3K/AKT/mTOR signaling in human U87 cells assessed as down regulation of MBD4 gene expression at cytotoxic IC50 measured after 48 hrs relative to control"}, "[10]": {"assay": "Inhibition of RTK/PI3K/AKT/mTOR signaling in human U87 cells assessed as down regulation of UBE2A gene expression at cytotoxic IC50 measured after 48 hrs relative to control"}, "[11]": {"assay": "Inhibition of RTK/PI3K/AKT/mTOR signaling in human U87 cells assessed as down regulation of RBBP5 gene expression at cytotoxic IC50 measured after 48 hrs relative to control"}, "[12]": {"assay": "Inhibition of RTK/PI3K/AKT/mTOR signaling in human U87 cells assessed as down regulation of NUP37 gene expression at cytotoxic IC50 measured after 48 hrs relative to control"}, "[13]": {"assay": "Inhibition of RTK/PI3K/AKT/mTOR signaling in human U87 cells assessed as down regulation of MAPRE1 gene expression at cytotoxic IC50 measured after 48 hrs relative to control"}, "[14]": {"assay": "Inhibition of RTK/PI3K/AKT/mTOR signaling in human U87 cells assessed as down regulation of LYPLA2 gene expression at cytotoxic IC50 measured after 48 hrs relative to control"}, "[15]": {"assay": "Inhibition of RTK/PI3K/AKT/mTOR signaling in human U87 cells assessed as down regulation of DDX24 gene expression at cytotoxic IC50 measured after 48 hrs relative to control"}, "[16]": {"assay": "Inhibition of RTK/PI3K/AKT/mTOR signaling in human U87 cells assessed as up regulation of C1QTNF1 gene expression at cytotoxic IC50 measured after 48 hrs relative to control"}, "[17]": {"assay": "Inhibition of RTK/PI3K/AKT/mTOR signaling in human U87 cells assessed as up regulation of LINC01405 gene expression at cytotoxic IC50 measured after 48 hrs relative to control"}, "[18]": {"assay": "Inhibition of RTK/PI3K/AKT/mTOR signaling in human U87 cells assessed as up regulation of LIF, interleukin 6 family cytokine gene expression at cytotoxic IC50 measured after 48 hrs relative to control"}, "[19]": {"assay": "Inhibition of RTK/PI3K/AKT/mTOR signaling in human U87 cells assessed as up regulation of chromosome 16 open reading frame 45 gene expression at cytotoxic IC50 measured after 48 hrs relative to control"}, "[20]": {"assay": "Inhibition of RTK/PI3K/AKT/mTOR signaling in human U87 cells assessed as up regulation of PC-esterase domain containing 1A gene expression at cytotoxic IC50 measured after 48 hrs relative to control"}, "[21]": {"assay": "Inhibition of RTK/PI3K/AKT/mTOR signaling in human U87 cells assessed as up regulation of spectrin repeat containing nuclear envelope protein 1 gene expression at cytotoxic IC50 measured after 48 hrs relative to control"}, "[22]": {"assay": "Inhibition of RTK/PI3K/AKT/mTOR signaling in human U87 cells assessed as up regulation of MCF.2 cell line derived transforming sequence like gene expression at cytotoxic IC50 measured after 48 hrs relative to control"}, "[23]": {"assay": "Inhibition of RTK/PI3K/AKT/mTOR signaling in human U87 cells assessed as up regulation of dynein axonemal assembly factor 5 gene expression at cytotoxic IC50 measured after 48 hrs relative to control"}, "[24]": {"assay": "Inhibition of RTK/PI3K/AKT/mTOR signaling in human U87 cells assessed as up regulation of inositol 1,4,5-trisphosphate receptor interacting protein like 2 gene expression at cytotoxic IC50 measured after 48 hrs relative to control"}, "[25]": {"assay": "Inhibition of RTK/PI3K/AKT/mTOR signaling in human U87 cells assessed as up regulation of eukaryotic elongation factor 2 kinase gene expression at cytotoxic IC50 measured after 48 hrs relative to control"}, "[26]": {"assay": "Inhibition of RTK/PI3K/AKT/mTOR signaling in human U87 cells assessed as up regulation of plastin 3 gene expression at cytotoxic IC50 measured after 48 hrs relative to control"}, "[27]": {"assay": "Inhibition of RTK/PI3K/AKT/mTOR signaling in human U87 cells assessed as up regulation of tryptophanyl-tRNA synthetase gene expression at cytotoxic IC50 measured after 48 hrs relative to control"}, "[28]": {"assay": "Inhibition of RTK/PI3K/AKT/mTOR signaling in human U87 cells assessed as up regulation of MAGE family member F1 gene expression at cytotoxic IC50 measured after 48 hrs relative to control"}, "[29]": {"assay": "Inhibition of RTK/PI3K/AKT/mTOR signaling in human U87 cells assessed as up regulation of ATP/GTP binding protein like 5 gene expression at cytotoxic IC50 measured after 48 hrs relative to control"}, "[30]": {"assay": "Inhibition of RTK/PI3K/AKT/mTOR signaling in human U87 cells assessed as up regulation of GSN gene expression at cytotoxic IC50 measured after 48 hrs relative to control"}, "[31]": {"assay": "Inhibition of RTK/PI3K/AKT/mTOR signaling in human U87 cells assessed as up regulation of NAP1L1 gene expression at cytotoxic IC50 measured after 48 hrs relative to control"}, "[32]": {"assay": "Inhibition of RTK/PI3K/AKT/mTOR signaling in human U87 cells assessed as up regulation of RPL7 gene expression at cytotoxic IC50 measured after 48 hrs relative to control"}}, "note": "This continues a long series; more values of the same kind are listed elsewhere."}
{"molecule": "CC(=O)C(=NNc1ccccc1C#N)C(C)=O", "values": [{"measurement": "log2FC", "setting": "[1]", "result": -0.693}, {"measurement": "log2FC", "setting": "[2]", "result": -3.42}, {"measurement": "log2FC", "setting": "[3]", "result": -1.9}, {"measurement": "log2FC", "setting": "[4]", "result": -1.34}, {"measurement": "log2FC", "setting": "[5]", "result": -1.02}, {"measurement": "log2FC", "setting": "[6]", "result": -0.992}, {"measurement": "log2FC", "setting": "[7]", "result": -0.963}, {"measurement": "log2FC", "setting": "[8]", "result": -0.934}, {"measurement": "log2FC", "setting": "[9]", "result": -0.839}, {"measurement": "log2FC", "setting": "[10]", "result": -0.775}, {"measurement": "log2FC", "setting": "[11]", "result": -0.765}, {"measurement": "log2FC", "setting": "[12]", "result": -0.716}, {"measurement": "log2FC", "setting": "[13]", "result": -0.708}, {"measurement": "log2FC", "setting": "[14]", "result": -0.552}, {"measurement": "log2FC", "setting": "[15]", "result": -0.544}, {"measurement": "log2FC", "setting": "[16]", "result": 1.93}, {"measurement": "log2FC", "setting": "[17]", "result": 1.92}, {"measurement": "log2FC", "setting": "[18]", "result": 1.26}, {"measurement": "log2FC", "setting": "[19]", "result": 1.16}, {"measurement": "log2FC", "setting": "[20]", "result": 1.12}, {"measurement": "log2FC", "setting": "[21]", "result": 1.09}, {"measurement": "log2FC", "setting": "[22]", "result": 1.03}, {"measurement": "log2FC", "setting": "[23]", "result": 1.02}, {"measurement": "log2FC", "setting": "[24]", "result": 0.775}, {"measurement": "log2FC", "setting": "[25]", "result": 0.703}, {"measurement": "log2FC", "setting": "[26]", "result": 0.695}, {"measurement": "log2FC", "setting": "[27]", "result": 0.692}, {"measurement": "log2FC", "setting": "[28]", "result": 0.68}, {"measurement": "log2FC", "setting": "[29]", "result": 0.656}, {"measurement": "log2FC", "setting": "[30]", "result": 0.457}, {"measurement": "log2FC", "setting": "[31]", "result": 0.444}, {"measurement": "log2FC", "setting": "[32]", "result": 0.329}]}
